Some of the results follow.
B1: il2ra_site1_3nfp_sap_17_mot_0eddeacbb14b769e73e254714f31e2f9_0001_af2_000000052_0001_37_51_H_._7093d3a5e4329be201a559e39cb9bd18_0001_0001_0000800048_0000001_0_0 … (protein)
chain: SSSDEAKELAEEAIEELERLIKEGDVRAVAETIRRIAKELLELNDPEALELLQREVRKLLRSSSS
B2: il2ra_site1_2b5i_sap_14_mot_HHH_b1_08243_000000135_0001_1_19_H_._HHH_b1_06522_0001_0000100006_0000001_0_0001_af2pred_dldesign_0_af2pred (protein)
chain: SSSSSLVRETIERVEELLKAGKTEEAKEVVDELEKIAKEKKNPSLLRTVKFLKEAIKDAEESSSS
B3: il2ra_site1_2b5i_sap_18_mot_HHH_b2_08121_af2_000000082_0001_40_52_H_._HHH_b1_08546_af2_0001_0000100001_0000001_1_0001 (protein)
chain: SSSSDEAVEEVDELFRRASRLFRSGNPEEARELIEEAQEIAERNNDESARRDLERFLELLRSSSS
B4: il2ra_site2_3nfp_normal_mot_HHH_b2_05132_000000098_0001_38_52_H_._HHH_b2_07492_0001_0000400049_0000001_0 (protein)
chain: SSSSDVEERVRELLEQAEELREEGNPEEVLRLLAEATHLALENNDFEAYALIAEVTLKLQQSSSS
B5: il2ra_site2_2erj_normal_mot_HHH_b1_07584_000000201_0001_42_55_H_._HHH_b1_00265_af2_0001_0000300007_0000001_0 (protein)
chain: SSSSDEEEEALELVARAIELAHNGNPEEARRLLEELAKLLEELGNETLLRYVELALRHIRGSSSS
B6: il2ra_site2_3nfp_sap_18_mot_HHH_b2_08245_000000023_0001_41_55_H_._HHH_b2_08322_0001_0001000045_0000001_0_0001 (protein)
chain: SSSSDDAEEHLRAALELLREALEEGDEELFRKIAEMIEKAAEDAKDEEVLEEVRRLLEEFDSSSS
B7: il2ra_site2_2erj_sap_27_mot_HHH_b2_03845_000000122_0001_43_56_H_._HHH_b2_05868_0001_0000100002_0000001_0_0001_af2pred_0001_1_af2pred_swapped (protein)
chain: SSSSSSDLEEEVEELLEEAKHIEDPKRANQVLVQAALLARRLGDQELEEAVLRVDEETSSSSSSS
B8: il2ra_site1_2b5i_normal_mot_HHH_b1_01495_af2_000000272_0001_42_56_H_._HHH_b2_06315_0001_0000400031_0000001_0_af2pred_dldesign_0_af2pred (protein)
chain: SSSSSEKYDRLYDLFEEALRLHKAGKKEEALKVLEEAIKLAKELGDEKLVKELEYLKSLLSSSSS
B9: il2ra_site2_2erj_sap_25_mot_HHH_b2_03387_af2_000000185_0001_39_52_H_._5b296406b44771ef4663aad1364b3660_0001_0001_0000200006_0000001_0_0001_af2pred_0001_1_af2pre … (protein)
chain: SLAESVALWVRLAAKLLGIPSVEVSVENGTLHVTVEGNDELAKRIRAAAELAAEANNITVEVEHE
B10: il2ra_site2_3nfp_normal_mot_HHH_b2_07840_000000026_0001_18_34_H_._HHH_b1_02230_af2_0001_0000200005_0000001_0 (protein)
chain: SSSSSDEEVEELLEEIRRLLEEGDDEQARELIHRASLLIAELRNHELFAIISDLLLLVASSSSSS

Target: il2ra, P01589
Experiment: yeast display titration

Apparent Kd, inactive:
B1 no binding seen
B2 no binding seen
B3 no binding seen
B4 no binding seen
B5 no binding seen
B6 no binding seen
B7 no binding seen
B8 no binding seen
B9 no binding seen
B10 no binding seen

2 records drawn at random from those above:
Apparent Kd, inactive:
B8 no binding seen
B7 no binding seen

Source: publication PMC10163288
